In PMC8865655:
These are yes or no findings as the source states them, for the method shown. In cells and extracts the contact can be indirect. Some results given as binding are weak or reduced against the parent protein; the word gives no strength.

The chains behind the UniProt entries cited, without tags or fusion partners. Where a name states a change or a piece, a line headed by the entry shows the natural chain unless it says otherwise.
UniProt Q86U44: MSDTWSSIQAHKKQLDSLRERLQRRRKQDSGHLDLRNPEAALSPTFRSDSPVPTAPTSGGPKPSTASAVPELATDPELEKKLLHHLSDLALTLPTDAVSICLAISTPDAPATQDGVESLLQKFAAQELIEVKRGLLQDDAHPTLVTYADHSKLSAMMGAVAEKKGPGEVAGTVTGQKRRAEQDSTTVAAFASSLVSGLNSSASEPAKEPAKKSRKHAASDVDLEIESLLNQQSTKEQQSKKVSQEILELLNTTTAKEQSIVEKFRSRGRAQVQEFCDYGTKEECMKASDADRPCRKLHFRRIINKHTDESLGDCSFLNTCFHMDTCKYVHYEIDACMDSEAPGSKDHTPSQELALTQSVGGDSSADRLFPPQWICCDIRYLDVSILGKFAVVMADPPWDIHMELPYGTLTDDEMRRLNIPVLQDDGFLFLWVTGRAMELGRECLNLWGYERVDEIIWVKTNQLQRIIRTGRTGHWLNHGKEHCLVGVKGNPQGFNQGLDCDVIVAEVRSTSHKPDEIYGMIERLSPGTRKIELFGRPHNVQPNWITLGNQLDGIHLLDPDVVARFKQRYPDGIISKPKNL

Key:
FLAG-METTL3 D395A = FLAG-METTL3 D395A (UniProt Q86U44); assay: co-IP; transfected HEK293T co-expressing the two tagged proteins; lysis in 50 mM Tris-HCl pH 7.5, 150 mM NaCl, 0.5% Triton X-100, 1 mM EDTA; Anti-DYKDDDDK magnetic agarose, 5 washes; immunoblot
FLAG-METTL3 N549A/Q550A = FLAG-METTL3 N549A/Q550A (UniProt Q86U44); assay: as above

Substance: Cry2-mCh-METTL3 (wild type, full-length construct) (from UniProt Q86U44 1-580)
- binding (FLAG-METTL3 D395A): binds
- binding (FLAG-METTL3 N549A/Q550A): binds
